# Test results published in PMC11077062.
# By UniProt entry, the sequences of proteins in these tests, tags left out. Where a name states a change or a piece, a line headed by the entry shows the natural chain unless it says otherwise.
# UniProt P9WGI1: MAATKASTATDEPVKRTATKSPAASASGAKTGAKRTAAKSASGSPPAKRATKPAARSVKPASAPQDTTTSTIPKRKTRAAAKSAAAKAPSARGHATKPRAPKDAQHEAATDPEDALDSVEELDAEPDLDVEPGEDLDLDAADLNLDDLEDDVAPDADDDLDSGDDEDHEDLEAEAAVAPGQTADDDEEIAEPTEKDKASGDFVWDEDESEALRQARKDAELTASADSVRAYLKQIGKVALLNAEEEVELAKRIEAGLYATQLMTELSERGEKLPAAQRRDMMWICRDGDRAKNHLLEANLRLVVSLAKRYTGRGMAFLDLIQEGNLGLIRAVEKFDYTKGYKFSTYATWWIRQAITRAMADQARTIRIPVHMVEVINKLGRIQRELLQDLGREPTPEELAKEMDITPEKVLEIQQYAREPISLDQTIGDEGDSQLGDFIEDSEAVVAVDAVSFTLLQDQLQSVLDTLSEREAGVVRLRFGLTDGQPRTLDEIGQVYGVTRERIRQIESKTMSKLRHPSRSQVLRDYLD
# UniProt P9WGY9: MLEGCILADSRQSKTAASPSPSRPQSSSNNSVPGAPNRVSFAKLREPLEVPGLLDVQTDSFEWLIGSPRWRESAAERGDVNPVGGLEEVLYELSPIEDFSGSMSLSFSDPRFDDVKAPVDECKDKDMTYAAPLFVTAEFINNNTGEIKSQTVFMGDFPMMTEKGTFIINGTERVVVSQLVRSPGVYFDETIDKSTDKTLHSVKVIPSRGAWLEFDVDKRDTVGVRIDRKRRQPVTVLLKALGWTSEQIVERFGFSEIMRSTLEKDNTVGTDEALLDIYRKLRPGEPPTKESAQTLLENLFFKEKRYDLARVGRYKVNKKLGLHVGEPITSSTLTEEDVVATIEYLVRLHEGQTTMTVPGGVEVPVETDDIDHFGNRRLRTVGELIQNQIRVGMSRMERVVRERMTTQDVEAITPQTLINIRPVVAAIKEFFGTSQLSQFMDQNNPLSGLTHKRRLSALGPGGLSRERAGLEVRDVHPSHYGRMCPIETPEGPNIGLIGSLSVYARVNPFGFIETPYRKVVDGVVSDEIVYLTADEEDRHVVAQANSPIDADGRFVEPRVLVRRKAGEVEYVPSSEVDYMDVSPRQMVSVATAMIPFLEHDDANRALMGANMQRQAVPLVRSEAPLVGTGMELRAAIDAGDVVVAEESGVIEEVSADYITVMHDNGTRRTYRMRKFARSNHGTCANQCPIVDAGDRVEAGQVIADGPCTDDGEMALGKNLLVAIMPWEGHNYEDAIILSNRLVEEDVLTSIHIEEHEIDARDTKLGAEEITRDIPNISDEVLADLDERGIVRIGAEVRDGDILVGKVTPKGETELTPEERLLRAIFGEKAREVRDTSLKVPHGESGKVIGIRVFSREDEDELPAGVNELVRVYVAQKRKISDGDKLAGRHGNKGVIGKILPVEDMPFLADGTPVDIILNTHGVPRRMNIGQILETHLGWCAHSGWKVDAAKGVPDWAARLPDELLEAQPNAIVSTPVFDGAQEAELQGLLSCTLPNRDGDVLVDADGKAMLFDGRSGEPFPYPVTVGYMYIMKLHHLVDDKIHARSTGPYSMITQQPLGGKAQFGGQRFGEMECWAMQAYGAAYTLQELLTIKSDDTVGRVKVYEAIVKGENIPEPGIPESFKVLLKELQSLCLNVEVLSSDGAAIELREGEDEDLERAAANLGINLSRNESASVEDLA
# UniProt A0QSL8: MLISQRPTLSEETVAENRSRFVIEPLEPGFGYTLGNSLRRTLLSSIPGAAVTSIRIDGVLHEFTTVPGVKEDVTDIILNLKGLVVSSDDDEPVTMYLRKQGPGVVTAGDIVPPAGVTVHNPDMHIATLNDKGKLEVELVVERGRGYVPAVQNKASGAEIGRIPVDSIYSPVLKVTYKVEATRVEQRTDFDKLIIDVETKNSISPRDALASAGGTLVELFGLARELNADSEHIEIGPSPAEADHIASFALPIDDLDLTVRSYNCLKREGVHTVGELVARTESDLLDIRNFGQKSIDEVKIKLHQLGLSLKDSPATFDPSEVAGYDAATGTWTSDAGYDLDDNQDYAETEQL
# UniProt P9WGY7: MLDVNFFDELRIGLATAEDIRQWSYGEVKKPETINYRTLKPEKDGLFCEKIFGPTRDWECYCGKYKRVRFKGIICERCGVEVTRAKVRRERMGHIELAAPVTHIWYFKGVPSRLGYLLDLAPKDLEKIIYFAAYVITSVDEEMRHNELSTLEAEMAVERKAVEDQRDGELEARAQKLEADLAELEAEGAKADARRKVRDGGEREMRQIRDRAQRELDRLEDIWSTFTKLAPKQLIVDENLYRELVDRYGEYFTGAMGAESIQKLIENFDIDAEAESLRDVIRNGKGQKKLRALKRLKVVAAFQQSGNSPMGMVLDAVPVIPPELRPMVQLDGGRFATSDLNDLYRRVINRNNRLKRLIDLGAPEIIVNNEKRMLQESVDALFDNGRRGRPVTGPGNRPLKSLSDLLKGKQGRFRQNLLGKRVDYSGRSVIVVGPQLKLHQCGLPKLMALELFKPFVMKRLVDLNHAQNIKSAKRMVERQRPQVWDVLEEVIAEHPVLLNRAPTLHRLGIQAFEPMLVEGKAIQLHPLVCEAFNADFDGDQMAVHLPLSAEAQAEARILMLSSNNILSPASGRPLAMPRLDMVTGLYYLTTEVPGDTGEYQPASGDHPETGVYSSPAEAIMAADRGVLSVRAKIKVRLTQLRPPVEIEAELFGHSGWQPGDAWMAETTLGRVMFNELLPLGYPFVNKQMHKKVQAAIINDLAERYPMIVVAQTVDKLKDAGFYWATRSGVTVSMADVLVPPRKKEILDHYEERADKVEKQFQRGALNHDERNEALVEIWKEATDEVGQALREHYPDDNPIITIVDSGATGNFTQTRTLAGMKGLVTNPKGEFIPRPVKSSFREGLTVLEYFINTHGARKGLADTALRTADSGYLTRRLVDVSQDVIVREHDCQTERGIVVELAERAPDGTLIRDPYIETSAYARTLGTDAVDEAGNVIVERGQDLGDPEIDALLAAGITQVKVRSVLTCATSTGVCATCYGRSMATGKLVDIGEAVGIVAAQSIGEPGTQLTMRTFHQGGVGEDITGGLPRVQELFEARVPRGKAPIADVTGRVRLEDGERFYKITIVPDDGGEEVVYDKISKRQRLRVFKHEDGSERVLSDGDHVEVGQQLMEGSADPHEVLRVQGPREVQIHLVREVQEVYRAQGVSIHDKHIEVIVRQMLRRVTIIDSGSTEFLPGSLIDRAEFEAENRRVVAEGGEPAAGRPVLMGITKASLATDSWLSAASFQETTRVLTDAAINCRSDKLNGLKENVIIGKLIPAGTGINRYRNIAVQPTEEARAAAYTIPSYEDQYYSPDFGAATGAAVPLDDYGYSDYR
# UniProt P9WGZ1: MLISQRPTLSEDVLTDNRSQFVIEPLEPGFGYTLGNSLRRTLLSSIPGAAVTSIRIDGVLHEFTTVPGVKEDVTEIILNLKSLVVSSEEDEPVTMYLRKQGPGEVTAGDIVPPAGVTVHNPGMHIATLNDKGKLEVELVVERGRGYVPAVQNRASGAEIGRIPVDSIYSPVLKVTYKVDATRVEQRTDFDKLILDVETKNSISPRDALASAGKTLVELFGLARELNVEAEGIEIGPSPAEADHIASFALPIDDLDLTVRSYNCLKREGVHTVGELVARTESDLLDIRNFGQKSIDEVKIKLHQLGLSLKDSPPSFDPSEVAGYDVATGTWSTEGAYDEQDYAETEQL
# Results are given in words; binding and its absence hold for the method and conditions named. In cells and extracts the contact can be indirect. Some results given as binding are weak or reduced against the parent protein; the word gives no strength. For some of these results: Where a sequence is shown, tags or fusion partners need not be part of it.
# Columns and labels:
# [1] = target: T1, σ factor σ^B (Mycobacterium smegmatis) (Mycobacterium smegmatis (endogenous in M. smegmatis mc2 155)) (UniProt A0QVZ5); test: co-IP; M. smegmatis lysates (exponential, stationary; also mitomycin C-treated cells); anti-RNAP β [8RB13] or anti-σ70 [2G10] on Protein G plus agarose, 16-18 h at 4°C, 20 mM Tris-HCl pH 7.9, 150 mM KCl, 1 mM MgCl2; silver-stained SDS-PAGE, MALDI-TOF, western blot
# T1 sequence: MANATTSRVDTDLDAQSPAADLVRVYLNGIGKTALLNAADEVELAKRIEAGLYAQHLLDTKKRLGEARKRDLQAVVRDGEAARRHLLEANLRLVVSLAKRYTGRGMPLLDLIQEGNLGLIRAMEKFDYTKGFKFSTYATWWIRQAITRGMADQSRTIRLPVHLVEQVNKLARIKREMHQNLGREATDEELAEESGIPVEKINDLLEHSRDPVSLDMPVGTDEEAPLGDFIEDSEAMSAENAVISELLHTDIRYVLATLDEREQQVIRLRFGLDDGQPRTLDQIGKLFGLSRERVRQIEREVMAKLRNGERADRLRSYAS
# [2] = target: primary σ factor σ^A (Mycobacterium tuberculosis) (Mycobacterium tuberculosis (endogenous in M. tuberculosis H37Rv)) (UniProt P9WGI1); test: co-IP; M. tuberculosis H37Rv early stationary phase lysate; anti-RNAP β [8RB13] or anti-σ70 [2G10] on Protein G plus agarose, 4 h at 4°C, 20 mM Tris-HCl pH 7.9, 150 mM KCl, 1 mM MgCl2; SDS-PAGE and western blot
# [3] = target: RNA polymerase β subunit (Mycobacterium tuberculosis) (Mycobacterium tuberculosis (endogenous in M. tuberculosis H37Rv)) (UniProt P9WGY9); test: as above
binding [1],Substance,binding [2],binding [3]
binds,"RNA polymerase (RNAP) of Mycobacterium smegmatis, named as a whole (from UniProt A0QSL8 1-350; P60281 1-1169; A0QS66 1-1317; A0QWT1 1-107) (complex)",–,–
–,RNA polymerase β′ subunit (Mycobacterium tuberculosis) (from UniProt P9WGY7 1-1316),binds,binds
–,RNA polymerase α subunit (Mycobacterium tuberculosis) (from UniProt P9WGZ1 1-347),–,binds
